For at least one entry, the source does not settle the construct or the ends of the probe. A weaker result is weaker than the reference pair of the same experiment. At least one verdict was read from the data and is not stated in words by the source.
Target: human cGAS (Homo sapiens) (UniProt Q8N884)
Experiment: EMSA
Settings: 1 uM DNA, EMSA: 1 uM DNA, 0-5 uM cGAS, 20 mM Tris-HCl pH 8.0 (4 C), 200 mM NaCl, on ice 30 min, 8% native PAGE in 25 mM Tris-HCl pH 8.5, 190 mM glycine, ethidium bromide stain, recombinant protein, residues 1-522; for binding signal (% unbound DNA at cGAS/DNA ratio 3): 3 uM cGAS

The chains behind the UniProt entries cited, without tags or fusion partners.
UniProt Q8N884, whole entry: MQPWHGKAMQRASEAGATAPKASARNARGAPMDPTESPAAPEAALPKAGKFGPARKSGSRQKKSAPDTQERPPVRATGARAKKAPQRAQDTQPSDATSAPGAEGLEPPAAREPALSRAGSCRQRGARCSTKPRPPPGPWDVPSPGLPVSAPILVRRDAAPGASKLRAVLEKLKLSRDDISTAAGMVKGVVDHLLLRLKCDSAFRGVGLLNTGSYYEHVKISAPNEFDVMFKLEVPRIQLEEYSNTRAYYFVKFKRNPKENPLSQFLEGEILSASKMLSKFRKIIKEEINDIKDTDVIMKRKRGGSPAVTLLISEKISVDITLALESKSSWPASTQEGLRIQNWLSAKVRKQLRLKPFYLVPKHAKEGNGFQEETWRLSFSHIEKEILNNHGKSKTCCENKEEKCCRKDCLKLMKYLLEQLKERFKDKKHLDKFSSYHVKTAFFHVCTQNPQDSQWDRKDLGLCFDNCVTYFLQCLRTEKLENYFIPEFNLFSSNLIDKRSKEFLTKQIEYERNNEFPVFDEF

For “CCCGAACTCCAGCAGGACCATTGCCC / CCCCAATGGTCCTGCTGGAGTTCCCC [C3 Y-form DNA]”, the binding signal (% unbound DNA at cGAS/DNA ratio 3) was > 60.
For “CGGGAACTCCAGCAGGACCATTGGGC / CGGCAATGGTCCTGCTGGAGTTCGGC [CGG Y-form DNA]”, the binding signal (% unbound DNA at cGAS/DNA ratio 3) was > 60.
“GAACTCCAGCAGGACCATTGGGG / CAATGGTCCTGCTGGAGTTCGGG [3'3'-G3 Y-form DNA]”: binds more weakly.
“GAACTCCAGCAGGACCATTGGGG / GGGCAATGGTCCTGCTGGAGTTC [3'5'-G3 Y-form DNA]”: binds more weakly.
With “GCGGAACTCCAGCAGGACCATTGGCG / GCGCAATGGTCCTGCTGGAGTTCGCG [GCG Y-form DNA]” the binding signal (% unbound DNA at cGAS/DNA ratio 3) was > 60.
In the case of “GGCGAACTCCAGCAGGACCATTGCGG / GGCCAATGGTCCTGCTGGAGTTCCGG [GGC Y-form DNA]”, the binding signal (% unbound DNA at cGAS/DNA ratio 3) was > 60.
“GGGGAACTCCAGCAGGACCATTG / CAATGGTCCTGCTGGAGTTCGGG [5'3'-G3 Y-form DNA]”: binds more weakly.
“GGGGAACTCCAGCAGGACCATTG / GGGCAATGGTCCTGCTGGAGTTC [5'5'-G3 Y-form DNA]”: binds more weakly.

— publication PMC10994814, “Enzymatic activity of cGAS in the presence of three types of DNAs: limited cGAS stimulation by single-stranded HIV-1 SL2 DNA”
